# Test results published in PubChem BioAssay AID1347423 (Functional Genomics Laboratory (NCATS/FGL), 2020).
# About 210 (0.4%) of roughly 52,000 sequences were called active.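 How the source made its calls: active means gene whose silencing raises cell survival under the drug, median off-target-corrected z-score across its silencing RNAs 2 or more; inactive means the rest.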 This is one part of the list.
# Assay: Resistance to Poly (ADP-Ribose) Polymerase inhibitor: Gene Identification via Genome-wide siRNA Screen
# Conditions: mouse BRCA2 R2336H ES cells, olaparib, CellTiter-Glo viability; hits give high values
# Summary of the method: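 Mouse BRCA2 R2336H ES cells were reverse-transfected with siRNA (20 nM final), treated at 48 h with 500 nM olaparib, and read by CellTiter-Glo after 72 h. Scores: MAD-based z per siRNA, median per gene, seed off-target correction.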
row,Sequence,z-score
1,GGAAAAAAUGGAACCAUUGTT against Rpa3,inactive: -2.35
2,GGUUCCAUAGCAGACAAAATT against Mrpl24,inactive: -1.99
3,GCUUUACCUGCAUAUUCCATT against Nradd,inactive: -1.4
4,GCUGCAGGAUAUCGCAAAGTT against Olfr1454,inactive: 1.2
5,GGCUGUGAAAGCAUAUGUGTT against Foxp2,inactive: -0.296
6,GGUCCAAGCCUUUUCUAGATT against 0610031J06Rik,inactive: 1.72
7,GGUGGAACCCAAUGACACCTT against Lass5,inactive: 0.287
8,UAUUUCUCCCUUGCUGGUATT against MGC118210,inactive: 4.46
9,GCCUUGACCUCAUACCUUGTT against 2410030K01Rik,inactive: -0.299
10,GUUUGAUGAUCACUGGGUCTT against Aqp2,inactive: 0.748
11,GGUCUUCUAUCUGAAAAUGTT against Ywhaq,inactive: 0.689
12,GGCAUGUGCAUUUGCUACGTT against Lama1,inactive: 1.33
13,GGCAUACCAAAAUCCAUUUTT against Egr1,inactive: -0.237
14,CGAAACACACUGGUAAGUGTT against Col2a1,inactive: -0.86
15,GGUUGAGAAGAAGAAGAAATT against Rpl6,inactive: -3.49
16,GGUACAACAAAAAUGUGACTT against V1rg2,inactive: -0.476
17,GCUAACAGUUCAUAGAAAATT against Nxn,inactive: 0.814
18,GGAGCUCAACGCAUUUUUCTT against Neurod2,inactive: 0.726
19,CGAGUGCUUCUCUUGACAUTT against Mrpl22,inactive: -0.887
20,GCACAGAGUCUAGUGUUUATT against Ube2j2,inactive: 0.778
21,GCAAUAAUGGCAAUUACGGTT against Slc35f4,inactive: -0.432
22,GGUGAACUGGAGUCAUUUATT against Cebpz,inactive: -0.773
23,GGCUGAAAAUGCAUGUAUGTT against Ptger1,inactive: 1.38
24,GCCCUGGAGUUUAUGAGGUTT against BC052055,inactive: 0.923
25,CCUGGUACAUCUCUGUUACTT against Olfr449,inactive: 0.28
26,GGUUUCAUCCUGGUGUAUATT against Rap2c,inactive: 0.475
27,CCAAGUCCAUUUCAUACUCTT against Ormdl3,inactive: 0.467
28,GGAUAUAUUGAAAUGCCCATT against Zfp161,inactive: -0.0742
29,CCUUCUAGUUUGCCUCUGGTT against Olfr877,inactive: -1.68

# Pulled one by one from the list above (2):
row,Sequence,z-score
9,GCCUUGACCUCAUACCUUGTT against 2410030K01Rik,inactive: -0.299
16,GGUACAACAAAAAUGUGACTT against V1rg2,inactive: -0.476
